The target in this assay is T1, GFP-tagged dl (dorsal) (Drosophila melanogaster) (UniProt P15330).
T1 sequence: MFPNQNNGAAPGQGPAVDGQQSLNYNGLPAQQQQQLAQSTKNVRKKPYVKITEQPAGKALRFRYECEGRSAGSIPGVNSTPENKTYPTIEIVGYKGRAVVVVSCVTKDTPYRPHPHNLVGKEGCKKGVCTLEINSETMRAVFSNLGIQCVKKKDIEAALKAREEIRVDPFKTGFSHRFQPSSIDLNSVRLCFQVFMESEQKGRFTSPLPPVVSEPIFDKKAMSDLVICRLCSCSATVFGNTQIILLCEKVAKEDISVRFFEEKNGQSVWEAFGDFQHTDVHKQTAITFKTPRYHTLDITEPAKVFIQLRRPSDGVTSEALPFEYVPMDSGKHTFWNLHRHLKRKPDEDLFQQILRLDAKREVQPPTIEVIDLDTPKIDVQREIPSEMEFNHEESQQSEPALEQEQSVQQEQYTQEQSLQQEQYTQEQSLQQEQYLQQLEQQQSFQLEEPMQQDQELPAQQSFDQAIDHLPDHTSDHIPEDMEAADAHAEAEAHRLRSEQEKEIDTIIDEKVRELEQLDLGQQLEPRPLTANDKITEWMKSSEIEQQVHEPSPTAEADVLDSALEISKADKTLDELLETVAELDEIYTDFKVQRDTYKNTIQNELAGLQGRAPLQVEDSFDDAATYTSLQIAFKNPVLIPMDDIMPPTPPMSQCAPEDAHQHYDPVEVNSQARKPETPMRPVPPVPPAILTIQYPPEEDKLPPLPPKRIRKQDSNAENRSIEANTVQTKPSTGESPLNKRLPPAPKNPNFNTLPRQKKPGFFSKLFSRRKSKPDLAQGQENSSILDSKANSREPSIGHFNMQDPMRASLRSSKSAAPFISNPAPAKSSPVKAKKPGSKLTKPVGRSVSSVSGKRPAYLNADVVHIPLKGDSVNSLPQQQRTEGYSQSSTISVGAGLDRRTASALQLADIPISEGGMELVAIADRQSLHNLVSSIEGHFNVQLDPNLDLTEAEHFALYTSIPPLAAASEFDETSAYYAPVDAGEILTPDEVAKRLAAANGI
Put plainly: co-IP.

Amino acid sequences for entries named in this document (tags omitted).
UniProt Q03017: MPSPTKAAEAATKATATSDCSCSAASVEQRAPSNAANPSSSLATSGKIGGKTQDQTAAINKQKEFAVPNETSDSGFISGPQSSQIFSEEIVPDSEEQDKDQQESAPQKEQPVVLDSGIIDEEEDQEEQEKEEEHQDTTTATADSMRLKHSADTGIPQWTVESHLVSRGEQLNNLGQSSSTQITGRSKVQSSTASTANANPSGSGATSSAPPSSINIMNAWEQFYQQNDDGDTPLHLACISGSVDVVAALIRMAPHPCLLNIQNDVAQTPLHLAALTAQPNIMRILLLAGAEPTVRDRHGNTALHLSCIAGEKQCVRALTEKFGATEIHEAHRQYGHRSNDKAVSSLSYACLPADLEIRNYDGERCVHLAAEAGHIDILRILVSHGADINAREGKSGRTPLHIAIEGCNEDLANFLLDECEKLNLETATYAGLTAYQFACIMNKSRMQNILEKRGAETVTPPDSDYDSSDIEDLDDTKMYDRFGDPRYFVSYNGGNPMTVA

Results are given in words; binding and its absence hold for the method and conditions named. In cells and extracts the contact can be indirect. Some binding calls cover weakened binding; strength is not graded here. Where a sequence is shown, tags or fusion partners need not be part of it.

Regarding “V5-tagged cact (cactus) (from UniProt Q03017 1-500)”, the binding entry was “binds”.
